{
  "sequences": {"note": "By UniProt entry, the sequences of proteins in these tests, tags left out.", "UniProt Q9NR30": "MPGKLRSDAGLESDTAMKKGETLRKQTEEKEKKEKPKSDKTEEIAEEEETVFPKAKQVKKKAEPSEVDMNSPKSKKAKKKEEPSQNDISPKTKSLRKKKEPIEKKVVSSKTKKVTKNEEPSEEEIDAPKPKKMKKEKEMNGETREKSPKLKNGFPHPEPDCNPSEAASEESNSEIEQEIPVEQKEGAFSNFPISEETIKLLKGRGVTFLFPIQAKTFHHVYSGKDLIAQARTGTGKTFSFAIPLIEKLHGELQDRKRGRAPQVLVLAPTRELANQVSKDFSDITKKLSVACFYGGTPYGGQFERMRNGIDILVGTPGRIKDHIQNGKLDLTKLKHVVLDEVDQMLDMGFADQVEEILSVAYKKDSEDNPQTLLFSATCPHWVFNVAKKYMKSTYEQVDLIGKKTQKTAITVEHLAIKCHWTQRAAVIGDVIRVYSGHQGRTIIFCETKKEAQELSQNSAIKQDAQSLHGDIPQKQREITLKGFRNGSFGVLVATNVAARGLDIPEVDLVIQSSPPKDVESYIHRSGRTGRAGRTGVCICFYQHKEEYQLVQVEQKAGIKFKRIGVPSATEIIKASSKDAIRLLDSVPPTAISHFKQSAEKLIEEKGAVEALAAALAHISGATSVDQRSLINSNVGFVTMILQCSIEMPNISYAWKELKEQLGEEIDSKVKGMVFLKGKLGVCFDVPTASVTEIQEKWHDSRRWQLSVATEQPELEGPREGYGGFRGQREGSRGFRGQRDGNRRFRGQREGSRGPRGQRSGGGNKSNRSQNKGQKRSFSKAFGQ", "UniProt P46013": "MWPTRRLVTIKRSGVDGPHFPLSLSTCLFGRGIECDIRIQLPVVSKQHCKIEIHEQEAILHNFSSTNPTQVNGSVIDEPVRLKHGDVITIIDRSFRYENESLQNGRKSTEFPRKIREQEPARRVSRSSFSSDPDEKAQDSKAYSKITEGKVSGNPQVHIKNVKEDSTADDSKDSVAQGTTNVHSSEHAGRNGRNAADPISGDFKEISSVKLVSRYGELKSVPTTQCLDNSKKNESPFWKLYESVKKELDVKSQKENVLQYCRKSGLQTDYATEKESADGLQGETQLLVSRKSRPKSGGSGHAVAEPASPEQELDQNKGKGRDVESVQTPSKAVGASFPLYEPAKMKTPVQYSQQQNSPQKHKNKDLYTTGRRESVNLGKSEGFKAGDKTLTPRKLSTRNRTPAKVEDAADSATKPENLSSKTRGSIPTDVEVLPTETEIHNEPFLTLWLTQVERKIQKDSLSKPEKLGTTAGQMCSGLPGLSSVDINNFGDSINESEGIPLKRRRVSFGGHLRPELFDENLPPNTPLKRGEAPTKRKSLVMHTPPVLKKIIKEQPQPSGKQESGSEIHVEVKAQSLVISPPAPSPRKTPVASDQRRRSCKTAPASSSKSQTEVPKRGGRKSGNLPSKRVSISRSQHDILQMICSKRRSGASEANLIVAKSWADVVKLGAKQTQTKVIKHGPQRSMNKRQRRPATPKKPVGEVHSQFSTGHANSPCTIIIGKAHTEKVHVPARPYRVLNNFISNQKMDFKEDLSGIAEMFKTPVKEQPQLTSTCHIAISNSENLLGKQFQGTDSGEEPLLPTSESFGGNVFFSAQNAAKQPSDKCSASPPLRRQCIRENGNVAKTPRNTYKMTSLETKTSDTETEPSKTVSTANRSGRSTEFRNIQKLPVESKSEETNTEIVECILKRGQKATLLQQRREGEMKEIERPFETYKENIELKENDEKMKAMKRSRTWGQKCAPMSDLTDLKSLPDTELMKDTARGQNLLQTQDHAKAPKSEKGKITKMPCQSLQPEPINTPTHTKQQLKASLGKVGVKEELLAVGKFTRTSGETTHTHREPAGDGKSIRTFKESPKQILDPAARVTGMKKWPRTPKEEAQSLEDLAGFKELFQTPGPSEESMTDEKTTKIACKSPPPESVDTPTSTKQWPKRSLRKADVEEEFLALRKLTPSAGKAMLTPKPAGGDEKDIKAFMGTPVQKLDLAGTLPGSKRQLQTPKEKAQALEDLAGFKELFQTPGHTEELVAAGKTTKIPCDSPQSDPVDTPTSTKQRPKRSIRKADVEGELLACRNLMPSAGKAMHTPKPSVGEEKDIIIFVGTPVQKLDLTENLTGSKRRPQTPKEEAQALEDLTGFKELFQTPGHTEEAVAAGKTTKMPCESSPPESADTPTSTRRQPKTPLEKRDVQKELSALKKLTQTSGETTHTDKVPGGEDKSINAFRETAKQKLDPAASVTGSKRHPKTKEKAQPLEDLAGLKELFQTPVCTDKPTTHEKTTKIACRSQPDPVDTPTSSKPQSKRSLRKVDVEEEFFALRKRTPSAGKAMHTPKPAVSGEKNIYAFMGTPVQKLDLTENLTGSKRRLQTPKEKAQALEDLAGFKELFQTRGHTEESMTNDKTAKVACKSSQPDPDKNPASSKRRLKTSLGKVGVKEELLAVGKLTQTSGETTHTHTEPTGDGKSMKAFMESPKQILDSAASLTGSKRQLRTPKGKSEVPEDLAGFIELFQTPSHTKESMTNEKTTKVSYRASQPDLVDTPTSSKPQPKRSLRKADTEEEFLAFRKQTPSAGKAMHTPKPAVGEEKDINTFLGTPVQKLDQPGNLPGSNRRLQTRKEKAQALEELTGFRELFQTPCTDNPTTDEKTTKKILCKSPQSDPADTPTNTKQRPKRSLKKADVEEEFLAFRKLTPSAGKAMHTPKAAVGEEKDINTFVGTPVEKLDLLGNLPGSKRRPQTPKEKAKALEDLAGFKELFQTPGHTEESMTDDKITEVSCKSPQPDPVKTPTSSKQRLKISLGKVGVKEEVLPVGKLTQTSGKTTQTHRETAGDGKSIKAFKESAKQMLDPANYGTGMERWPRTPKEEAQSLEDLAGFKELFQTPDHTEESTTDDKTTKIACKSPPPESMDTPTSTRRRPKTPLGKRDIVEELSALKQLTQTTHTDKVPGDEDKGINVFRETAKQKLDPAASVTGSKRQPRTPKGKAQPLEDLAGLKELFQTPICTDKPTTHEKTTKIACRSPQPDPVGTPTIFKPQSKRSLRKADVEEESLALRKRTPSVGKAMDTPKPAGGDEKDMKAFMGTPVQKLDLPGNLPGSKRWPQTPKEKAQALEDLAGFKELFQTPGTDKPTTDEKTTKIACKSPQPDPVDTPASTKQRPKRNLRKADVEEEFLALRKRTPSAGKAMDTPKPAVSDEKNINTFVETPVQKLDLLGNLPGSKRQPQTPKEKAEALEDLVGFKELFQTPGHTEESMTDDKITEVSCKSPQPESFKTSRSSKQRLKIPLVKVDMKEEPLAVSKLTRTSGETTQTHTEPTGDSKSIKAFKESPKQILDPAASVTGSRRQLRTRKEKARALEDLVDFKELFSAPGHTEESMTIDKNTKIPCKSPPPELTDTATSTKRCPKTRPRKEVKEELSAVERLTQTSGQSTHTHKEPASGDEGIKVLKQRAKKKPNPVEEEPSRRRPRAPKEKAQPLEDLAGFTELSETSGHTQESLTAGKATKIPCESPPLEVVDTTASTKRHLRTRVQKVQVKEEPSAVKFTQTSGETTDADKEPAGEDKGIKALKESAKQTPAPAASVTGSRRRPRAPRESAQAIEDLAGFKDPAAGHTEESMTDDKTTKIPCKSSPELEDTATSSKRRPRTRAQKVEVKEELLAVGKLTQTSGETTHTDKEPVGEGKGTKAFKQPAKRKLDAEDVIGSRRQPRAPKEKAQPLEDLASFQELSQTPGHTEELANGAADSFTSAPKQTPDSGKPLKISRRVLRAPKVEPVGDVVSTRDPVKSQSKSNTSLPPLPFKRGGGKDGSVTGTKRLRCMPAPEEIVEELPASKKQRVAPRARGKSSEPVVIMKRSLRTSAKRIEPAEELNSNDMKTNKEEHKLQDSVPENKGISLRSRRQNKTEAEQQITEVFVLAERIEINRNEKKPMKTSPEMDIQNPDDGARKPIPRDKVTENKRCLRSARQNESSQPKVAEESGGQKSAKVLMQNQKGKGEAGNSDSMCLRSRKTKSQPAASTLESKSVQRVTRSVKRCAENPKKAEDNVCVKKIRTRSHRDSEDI", "UniProt P06748": "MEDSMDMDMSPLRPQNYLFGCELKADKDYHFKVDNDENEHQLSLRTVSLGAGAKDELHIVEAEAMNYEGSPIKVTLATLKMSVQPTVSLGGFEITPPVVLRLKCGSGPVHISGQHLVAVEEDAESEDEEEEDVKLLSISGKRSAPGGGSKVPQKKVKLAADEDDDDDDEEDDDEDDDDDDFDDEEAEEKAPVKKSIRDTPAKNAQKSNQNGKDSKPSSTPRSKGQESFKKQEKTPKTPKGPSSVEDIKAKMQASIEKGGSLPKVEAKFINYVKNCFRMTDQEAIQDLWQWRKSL"},
  "source": "paper doi:10.1101/2022.10.27.514025",
  "molecules": {"B1": {"name": "GNL3/nucleostemin (protein, UniProt Q9BVP2 1-549)", "chain": "MKRPKLKKASKRMTCHKRYKIQKKVREHHRKLRKEAKKRGHKKPRKDPGVPNSAPFKEALLREAELRKQRLEELKQQQKLDRQKELEKKRKLETNPDIKPSNVEPMEKEFGLCKTENKAKSGKQNSKKLYCQELKKVIEASDVVLEVLDARDPLGCRCPQVEEAIVQSGQKKLVLILNKSDLVPKENLESWLNYLKKELPTVVFRASTKPKDKGKITKRVKAKKNAAPFRSEVCFGKEGLWKLLGGFQETCSKAIRVGVIGFPNVGKSSIINSLKQEQMCNVGVSMGLTRSMQVVPLDKQITIIDSPSFIVSPLNSSSALALRSPASIEVVKPMEAASAILSQADARQVVLKYTVPGYRNSLEFFTVLAQRRGMHQKGGIPNVEGAAKLLWSEWTGASLAYYCHPPTSWTPPPYFNESIVVDMKSGFNLEELEKNNAQSIRAIKGPHLANSILFQSSGLTNGIIEEKDIHEELPKRKERKQEEREDDKDSDQETVDEEVDENSSGMFAAEETGEALSEETTAGEQSTRSFILDKIIEEDDAYDFSTDYV"}, "B2": {"name": "ORC2 (protein, UniProt Q13416 1-577)", "chain": "MSKPELKEDKMLEVHFVGDDDVLNHILDREGGAKLKKERAQLLVNPKKIIKKPEYDLEEDDQEVLKDQNYVEIMGRDVQESLKNGSATGGGNKVYSFQNRKHSEKMAKLASELAKTPQKSVSFSLKNDPEITINVPQSSKGHSASDKVQPKNNDKSEFLSTAPRSLRKRLIVPRSHSDSESEYSASNSEDDEGVAQEHEEDTNAVIFSQKIQAQNRVVSAPVGKETPSKRMKRDKTSDLVEEYFEAHSSSKVLTSDRTLQKLKRAKLDQQTLRNLLSKVSPSFSAELKQLNQQYEKLFHKWMLQLHLGFNIVLYGLGSKRDLLERFRTTMLQDSIHVVINGFFPGISVKSVLNSITEEVLDHMGTFRSILDQLDWIVNKFKEDSSLELFLLIHNLDSQMLRGEKSQQIIGQLSSLHNIYLIASIDHLNAPLMWDHAKQSLFNWLWYETTTYSPYTEETSYENSLLVKQSGSLPLSSLTHVLRSLTPNARGIFRLLIKYQLDNQDNPSYIGLSFQDFYQQCREAFLVNSDLTLRAQLTEFRDHKLIRTKKGTDGVEYLLIPVDNGTLTDFLEKEEEEA"}, "B3": {"name": "GNL3L (protein, UniProt Q9NVN8 1-582)", "chain": "MMKLRHKNKKPGEGSKGHKKISWPYPQPAKQNGKKATSKVPSAPHFVHPNDHANREAELKKKWVEEMREKQQAAREQERQKRRTIESYCQDVLRRQEEFEHKEEVLQELNMFPQLDDEATRKAYYKEFRKVVEYSDVILEVLDARDPLGCRCFQMEEAVLRAQGNKKLVLVLNKIDLVPKEVVEKWLDYLRNELPTVAFKASTQHQVKNLNRCSVPVDQASESLLKSKACFGAENLMRVLGNYCRLGEVRTHIRVGVVGLPNVGKSSLINSLKRSRACSVGAVPGITKFMQEVYLDKFIRLLDAPGIVPGPNSEVGTILRNCVHVQKLADPVTPVETILQRCNLEEISNYYGVSGFQTTEHFLTAVAHRLGKKKKGGLYSQEQAAKAVLADWVSGKISFYIPPPATHTLPTHLSAEIVKEMTEVFDIEDTEQANEDTMECLATGESDELLGDTDPLEMEIKLLHSPMTKIADAIENKTTVYKIGDLTGYCTNPNRHQMGWAKRNVDHRPKSNSMVDVCSVDRRSVLQRIMETDPLQQGQALASALKNKKKMQKRADKIASKLSDSMMSALDLSGNADDGVGD"}},
  "note": "These are yes or no findings as the source states them, for the method shown. In cells and extracts the contact can be indirect. A yes stands for co-enrichment or nearness to the bait. Other partners may have been found. For some of these results: Sequences can lack the tags named with a protein.",
  "data": [
    {"target": "T1, ORC2 (human (endogenous in HEK293, K562 and HeLa)) (UniProt Q13416)", "T1 sequence": "B2 chain", "assay": "affinity purification with mass spectrometry", "values": [
      {"molecule": "B1", "binding": "binds"}
    ]},
    {"target": "T2, GNL3-BirA-FLAG (human) (UniProt Q9BVP2)", "T2 sequence": "B1 chain", "assay": "proximity labelling", "values": [
      {"molecule": "DDX21 (from UniProt Q9NR30 1-783)", "binding": "binds"},
      {"molecule": "GNL2 (from UniProt Q13823 1-731)", "binding": "binds"},
      {"molecule": "Ki67 (from UniProt P46013 1-3256)", "binding": "binds"},
      {"molecule": "NPM1 (from UniProt P06748 1-294)", "binding": "binds"},
      {"molecule": "B2", "binding": "binds"},
      {"molecule": "B3", "binding": "binds"}
    ]}
  ]
}
